Screening data, single-dose tests

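Phenotypic screen: M. tuberculosis growth, glucose 7H9 medium, 3 days; the read-out is not stated. Tested at 50 µM. The record gives no direction; compounds that gave an IC50 in retests scored well above the rest, so higher reads as more growth inhibition. About 69,000 compounds were tested under these conditions; 1.1% (about 760) showed 50% or more at least once.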

Results are given as percent effect. The record does not define 0% and 100%; most values in the screen are far below 50% and negative numbers occur (in some assays of this library far below -100). This is an unselected part of the compounds tested. Two or more numbers in one place are separate tests of the same structure; such repeats can differ widely.

{"compound": "CS(=O)(=O)NCc1ncn2c1CN(CCN1CCCC1)CCC2", "percent effect": -16.17}
{"compound": "O=c1[nH]nc(CCCN2CCOCC2)n1Cc1cccc(F)c1", "percent effect": "-3.503 and -29.14"}
{"compound": "O=C(NCc1cc[nH]n1)NCC(c1ccccc1Cl)N1CCCC1", "stereo": "stereo not shown", "percent effect": 0.4255}
{"compound": "NC1CCCCN(Cc2cc(C3CCCCC3)no2)C1", "stereo": "stereo not shown", "percent effect": "8.648 and 2.201"}
{"compound": "CCN1CCC2(COCc3c(C)nc(N(C)C)nc32)C1", "stereo": "stereo not shown", "percent effect": 29.34}
{"compound": "O=C(NCc1nnc2ccccn12)N1CCOC(c2ccsc2)C1", "stereo": "stereo not shown", "percent effect": "11.54 and 6.583"}
{"compound": "Cc1nn(C)c(Cl)c1C1CCCN1Cc1nnc(C2CC2)n1C", "stereo": "stereo not shown", "percent effect": 3.834}
{"compound": "CCOC1Sc2nnc(C)n2N=C1c1ccc(Br)cc1", "stereo": "stereo not shown", "percent effect": "7.218 and 5.839"}
{"compound": "CCCNC(=O)CN1CCOC(c2ccc(Br)cc2)C1", "stereo": "stereo not shown", "percent effect": "9.009 and -1.595"}
{"compound": "Cc1ccccc1N1CCCN(c2ccncn2)CC1", "percent effect": "26.34 and 30.47"}
{"compound": "CCC(c1ccccc1)c1nn2c(CN(CC)CC)nnc2s1", "stereo": "stereo not shown", "percent effect": "-3.734 and -2.763"}
{"compound": "O=C(c1cccnc1)N1CCCC1c1nc(O)cc(-c2ccccn2)n1", "stereo": "stereo not shown", "percent effect": 4.023}
{"compound": "CCN(C(=O)COC)C(c1cccnc1)c1ccc2c(c1)CCO2", "stereo": "stereo not shown", "percent effect": -25.07}
{"compound": "O=C1N(Cc2cccc(F)c2)CCC12CCCNC2", "stereo": "stereo not shown", "percent effect": 9.806}
{"compound": "CN(C)C(=O)CN1CCC2(CCN(S(=O)(=O)C3CC3)CC2)C1=O", "percent effect": 15.66}
{"compound": "Cc1cnc(CNS(=O)(=O)CCC2CCCO2)o1", "stereo": "stereo not shown", "percent effect": 13.91}
{"compound": "O=C(O)C(F)(F)F.[H][C@@]12CCN(CC3CCOCC3)C[C@@]1([H])O[C@@H](C(=O)N1CCC(C)CC1)C2", "percent effect": "-8.606 and -1.085"}
{"compound": "CCC(=O)N1CCC(c2nc(C)c3c(n2)N(C)CCC3)CC1", "percent effect": -0.58}
{"compound": "[H][C@]12CN(S(=O)(=O)c3ccc(C(=O)NCCSCC)cc3)[C@]([H])(CN1)C2", "percent effect": -2.225}
{"compound": "CN(CCO)C[C@@H]1CN(C(=O)c2cccc(OC(F)F)c2)C[C@@H]1CO", "percent effect": 17.12}
{"compound": "Cc1cc(=O)[nH]c(=O)n1Cc1ccccc1", "percent effect": "2.024 and -3.804"}
{"compound": "CCc1noc(CNc2cc(F)ccc2OCC2CCCO2)n1", "stereo": "stereo not shown", "percent effect": 4.765}
{"compound": "CC1(C)Cc2ccccc2-c2nc(NCCCO)[nH]c(=O)c21", "percent effect": 10.37}
{"compound": "CCc1noc(C2CCCCN2C(=O)c2cccs2)n1", "stereo": "stereo not shown", "percent effect": -2.966}
{"compound": "CC(C)NC(=O)NC[C@H]1OC[C@@H](NCc2ccc(F)cc2)[C@@H]1O", "percent effect": "18.69 and -6.416"}
{"compound": "Cc1cc(C(=O)NCC(O)c2ccc(Cl)s2)c(C)o1", "stereo": "stereo not shown", "percent effect": "-9.509 and 1.5"}
{"compound": "CNc1ncc2c(n1)CN(CCc1ccc(C)cc1)C2=O", "percent effect": 10.39}
{"compound": "CCCc1nc2c(c(C)c(C)n2Cc2ccccn2)c(N)c1CC", "percent effect": "16.81 and 23.02"}
{"compound": "COC(=O)c1ccc(N2CCN(C(=O)c3cccnc3)C(C)C2)cc1", "stereo": "stereo not shown", "percent effect": "-67.27 and 3.603"}
{"compound": "Cc1cccc(CN2Cc3ncn(C)c3C(COCC(=O)N(C)C)C2)n1.O=C(O)C(F)(F)F.O=C(O)C(F)(F)F.O=C(O)C(F)(F)F", "stereo": "stereo not shown", "percent effect": -6.65}
{"compound": "COc1cc(C2CC(=O)Oc3cc(C)[nH]c(=O)c32)ccc1O", "stereo": "stereo not shown", "percent effect": -15.64}
{"compound": "O=C(O)C(F)(F)F.O=C(O)C(F)(F)F.[H][C@@]12C[C@@H](Oc3cccnc3)CN1CCN(C(=O)c1ccc(F)cc1)C2", "percent effect": "-4.035 and -1.045"}
{"compound": "[H][C@@]12CCC(=O)N(CCCOC)[C@]1([H])CCN(Cc1ccc3occc3c1)C2", "percent effect": -5.934}
{"compound": "O=C1CCC(C(=O)N(Cc2ccsc2)CC2CCCO2)=NN1", "stereo": "stereo not shown", "percent effect": 16.43}
{"compound": "CCc1nc(C2CCCN(C(=O)c3cccc(C(N)=O)c3)C2)no1", "stereo": "stereo not shown", "percent effect": -12.99}
{"compound": "O=C(O)C(F)(F)F.[H][C@]12CCN(C(=O)c3cccs3)CC[C@]1([H])N(CCOC)CCO2", "percent effect": "-48.35 and -10.91"}
{"compound": "CN(Cc1coc(-c2ccccc2)n1)C1CCCN(c2cccnn2)C1", "stereo": "stereo not shown", "percent effect": 22.18}
{"compound": "Cc1ccc(CNC2(Cc3cc(CO)on3)COC2)o1", "percent effect": "-4.374 and -22.58"}
{"compound": "Cc1nn(CCC#N)c(C)c1CCC(=O)N(C)Cc1ccc(F)cc1F", "percent effect": 0.9981}
{"compound": "[H][C@]12CN(c3ncccn3)CC[C@@]1(O)CCN(S(=O)(=O)N(C)C)C2", "percent effect": "-19.08 and -0.7751"}
{"compound": "O=C(C(CNCc1cccc(O)c1)c1ccccc1)N1CCOCC1", "stereo": "stereo not shown", "percent effect": 2.236}
{"compound": "[H][C@]12CC[C@@]3(N=C(c4ccccc4)NC3=O)[C@@]1([H])CN(C(=O)c1ccoc1)C2", "percent effect": "-2.798 and 1.102"}
{"compound": "Cc1cccc(C2CCCN2C(=O)CN(C)S(C)(=O)=O)c1C", "stereo": "stereo not shown", "percent effect": 12.57}
{"compound": "CCCc1nc(NCCCOC)c2c(n1)c(C)nn2CC", "percent effect": 13.04}
{"compound": "CC1(C)CNC(=O)CN(C(=O)COc2ccccc2)C1", "percent effect": 39.66}
{"compound": "CCOc1ccc(Cl)cc1CNCCCn1ccnc1", "percent effect": -12.4}
{"compound": "O=C(NCCn1cccn1)c1ccn(-c2cccc(F)c2)n1", "percent effect": 16.19}
{"compound": "CC(C)c1nnc2n1CCN(C(=O)c1cc3cc(F)ccc3[nH]1)C2", "percent effect": 32.44}
{"compound": "Cc1cc(N2CCN(C(=O)C(C)n3ccnc3C(C)C)CC2)cc(C)n1", "stereo": "stereo not shown", "percent effect": "-18.52 and -3.358"}
{"compound": "O=C(NC1CC2(CCN(CCO)CC2)c2ccccc21)c1ccncc1.O=C(O)C(F)(F)F.O=C(O)C(F)(F)F", "stereo": "stereo not shown", "percent effect": "-3.478 and 18.73"}
{"compound": "CN1CCN(C(=O)c2cc(-c3cnc(N4CCCC4)nc3)cn2C)CC1", "percent effect": -9.031}
{"compound": "COc1cc(C)c(CNC(C)c2nc(C)cs2)cc1OC", "stereo": "stereo not shown", "percent effect": "-2.339 and 22.95"}
{"compound": "O=C(O)C(F)(F)F.[H][C@@]12CN(C(=O)NC(C)C)C[C@]1([H])C(=O)N(Cc1csc(C)n1)C2", "percent effect": -0.9652}

Repeated from the top, 5 entries:

compound	percent effect
CS(=O)(=O)NCc1ncn2c1CN(CCN1CCCC1)CCC2	-16.17%
O=c1[nH]nc(CCCN2CCOCC2)n1Cc1cccc(F)c1	-3.503% and -29.14%
O=C(NCc1cc[nH]n1)NCC(c1ccccc1Cl)N1CCCC1 (stereo not shown)	0.4255%
NC1CCCCN(Cc2cc(C3CCCCC3)no2)C1 (stereo not shown)	8.648% and 2.201%
CCN1CCC2(COCc3c(C)nc(N(C)C)nc32)C1 (stereo not shown)	29.34%

Measurements from “University of Dundee, Small-Polar-MMV Screening Library” (2021), ChEMBL document CHEMBL3988442.